Results deposited as PubChem BioAssay AID1159578 (Peter MacCallum Cancer Centre, 2015)
This is one part, drawn at random, of about 18,000 deposited reagents. Of all reagents, about 1,030 (5.7%) got an active call. 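Inactive calls also include pools with fewer than 3300 nuclei, whose migration was not assessed.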 Raw values vary from plate to plate and are shown uncorrected. Unmarked entries are inactive. Not all columns of the deposit are shown. Reagent sequences are not shown.

Test: 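siRNA pools altering how lymphatic endothelial cells close a scratch wound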 (primary screen)
Cells: human lymphatic endothelial cells
Reagent: siRNA pool against human genes, 40 nM
Duration: 48 h after transfection
Detection: 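Cells stained with dye and imaged after a scratch; covered wound area and nuclei counted, duplicates averaged, migration set against mock wells and turned into a robust z-score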
Direction: migration robust z-score: higher = faster migration into the scratch; nuclei per well: higher = more cells in the well
Hit rule: 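Pools averaging fewer than 3300 nuclei are never called; remaining pools count as changed when migration robust z lies outside -2 to 2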
Meaning of the calls: active = migration changed; inactive = no migration change, or too few cells

CRABP1 (cellular retinoic acid binding protein 1)
- migration robust z-score: -1.84
- migration class with cell-count check: migration z between -2 and 2; enough cells
- nuclei per well, duplicate mean: 5090

SLC6A5
- migration robust z-score: -0.32
- migration class with cell-count check: migration z between -2 and 2; enough cells
- nuclei per well, duplicate mean: 5987

LAMC1 (laminin subunit gamma 1)
- migration robust z-score: -1.3
- migration class with cell-count check: migration z between -2 and 2; enough cells
- nuclei per well, duplicate mean: 5631

APPBP2 (amyloid beta precursor protein binding protein 2)
- migration robust z-score: -1.03
- migration class with cell-count check: migration z between -2 and 2; enough cells
- nuclei per well, duplicate mean: 5062

RTTN (rotatin)
- migration robust z-score: -0.02
- migration class with cell-count check: migration z between -2 and 2; enough cells
- nuclei per well, duplicate mean: 6082

ATF6B (activating transcription factor 6 beta)
- migration robust z-score: 1.79
- migration class with cell-count check: migration z between -2 and 2; enough cells
- nuclei per well, duplicate mean: 4770

OR10J5 (olfactory receptor family 10 subfamily J member 5)
- migration robust z-score: -0.05
- migration class with cell-count check: migration z between -2 and 2; enough cells
- nuclei per well, duplicate mean: 5989

ALG6 (ALG6 alpha-1,3-glucosyltransferase)
- migration robust z-score: -0.52
- migration class with cell-count check: migration z between -2 and 2; enough cells
- nuclei per well, duplicate mean: 5842

PARD3 (par-3 family cell polarity regulator)
- migration robust z-score: -0.96
- migration class with cell-count check: migration z between -2 and 2; enough cells
- nuclei per well, duplicate mean: 5675

PAX2 (paired box 2)
- migration robust z-score: 0.5
- migration class with cell-count check: migration z between -2 and 2; enough cells
- nuclei per well, duplicate mean: 4536

PRELID3A (PRELI domain containing 3A)
- migration robust z-score: -0.09
- migration class with cell-count check: migration z between -2 and 2; enough cells
- nuclei per well, duplicate mean: 5283

NRARP (NOTCH regulated ankyrin repeat protein)
- migration robust z-score: 0.29
- migration class with cell-count check: migration z between -2 and 2; enough cells
- nuclei per well, duplicate mean: 5908

PDK1 (pyruvate dehydrogenase kinase 1)
- migration robust z-score: 1.42
- migration class with cell-count check: migration z between -2 and 2; enough cells
- nuclei per well, duplicate mean: 4736

ZNF257 (zinc finger protein 257)
- migration robust z-score: 0.57
- migration class with cell-count check: migration z between -2 and 2; enough cells
- nuclei per well, duplicate mean: 6375

POLR2I (RNA polymerase II subunit I)
- migration robust z-score: 0.46
- migration class with cell-count check: migration z between -2 and 2; enough cells
- nuclei per well, duplicate mean: 4763

TTC21A (tetratricopeptide repeat domain 21A)
- migration robust z-score: 0.5
- migration class with cell-count check: migration z between -2 and 2; enough cells
- nuclei per well, duplicate mean: 6047

PIP5KL1 (phosphatidylinositol-4-phosphate 5-kinase like 1)
- migration robust z-score: -3.5
- migration class with cell-count check: under 3300 nuclei; migration not judged
- nuclei per well, duplicate mean: 3122

KAT2B (lysine acetyltransferase 2B)
- migration robust z-score: 1.12
- migration class with cell-count check: migration z between -2 and 2; enough cells
- nuclei per well, duplicate mean: 5790

ANAPC2 (anaphase promoting complex subunit 2)
- migration robust z-score: 0.7
- migration class with cell-count check: migration z between -2 and 2; enough cells
- nuclei per well, duplicate mean: 6078

FKBP14 (FKBP prolyl isomerase 14)
- migration robust z-score: 0.68
- migration class with cell-count check: migration z between -2 and 2; enough cells
- nuclei per well, duplicate mean: 6612

UBIAD1 (UbiA prenyltransferase domain containing 1)
- migration robust z-score: 1.03
- migration class with cell-count check: migration z between -2 and 2; enough cells
- nuclei per well, duplicate mean: 5036

Records listed so far whose target name begins with A or a:
APPBP2 (amyloid beta precursor protein binding protein 2)
- migration robust z-score: -1.03
- migration class with cell-count check: migration z between -2 and 2; enough cells
- nuclei per well, duplicate mean: 5062

ATF6B (activating transcription factor 6 beta)
- migration robust z-score: 1.79
- migration class with cell-count check: migration z between -2 and 2; enough cells
- nuclei per well, duplicate mean: 4770

ALG6 (ALG6 alpha-1,3-glucosyltransferase)
- migration robust z-score: -0.52
- migration class with cell-count check: migration z between -2 and 2; enough cells
- nuclei per well, duplicate mean: 5842

ANAPC2 (anaphase promoting complex subunit 2)
- migration robust z-score: 0.7
- migration class with cell-count check: migration z between -2 and 2; enough cells
- nuclei per well, duplicate mean: 6078
